Results as given in PubChem BioAssay AID2417 (National Center for Advancing Translational Sciences (NCATS), 2010).
Out of some 140,000 compounds screened, about 4,300 (3.1%) were called active. The shares of active, inactive and inconclusive entries below differ from those in the screen.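 Rule for the calls: active = readout at or below -70, meaning at least 70% loss of cells showing the perinucleolar compartment, a nuclear body marking cancer cells; inconclusive = readout between -30 and a set limit; inactive = the rest.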

assay: High Content Assay for Compounds that inhibit the Assembly of the Perinucleolar Compartment; conditions: PC3M PTB-GFP, PNC prevalence imaging, 16 h; at 10 µM; hits give low values;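 note: plate controls were DMSO wells for no effect and camptothecin positive control wells for full effect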
Procedure, shortened: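 Read-out is percentage of cells bearing a perinucleolar compartment, from automated 20x imaging of fixed, Hoechst-stained PC3M PTB-GFP cells. Cells were seeded 4 h, then exposed 16 h to compound (23 nl of library stock) in duplicate plates.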

Row | Compound | activity change (PNC), negative = inhibition
1 | O=C(CCN1CCCCC1)Nn1c(=S)[nH]c2ccccc2c1=O | inconclusive: -61%
2 | CCOC(=O)c1c(NC(=O)COC(=O)Cn2cnc3ccccc32)sc(C)c1C | inconclusive: -42.3%
3 | COc1ccc(C(=O)N2CCN(Cc3cc(OC)c(O)c(OC)c3)CC2)cc1OC | active: -86.7%
4 | CCCNC(=O)c1cc(-c2ccc(OC)cc2)n(CCCOC)c1C | inconclusive: -31.3%
5 | Cn1c(=O)c2c(nc(SCCN3CCOCC3)n2Cc2ccccc2Cl)n(C)c1=O | inactive: -10.5%
6 | CCNc1oc(COc2ccccc2F)nc1C#N | inactive: -12.5%
7 | CSc1nc(-c2ccc(Cl)cc2)nn1C(=O)c1ccccc1 | inconclusive: -74.2%
8 | O=C(OCC(O)C(O)COC(=O)c1ccccc1)c1ccccc1 (centres undefined) | active: -83.5%
9 | COc1ccc(C2NC(=S)NC(C)=C2C(=O)Nc2ccccn2)cc1OC (centres undefined) | inconclusive: -37.9%
10 | O=C(NCc1n[nH]c(=S)n1-c1ccc(F)cc1)c1ccc(S(=O)(=O)N2CCCC2)cc1 | inconclusive: -50.3%
11 | COc1cc(C)ccc1N(CCCN1C(=O)c2cccc3cccc(c23)C1=O)C(=O)c1cccs1 | inconclusive: -53%
12 | CC(C)(C)NC(=O)C(c1ccncc1)N(C(=O)c1csnn1)C1CC1 (centres undefined) | inconclusive: -52.4%
13 | Cc1c(NC(=O)CSc2nnc(-c3ccco3)n2-c2ccccc2)c(=O)n(-c2ccccc2)n1C | inconclusive: -37%
14 | CCOC(=O)c1ccc(NC(=S)Nc2ccccc2)cc1 | inactive: -29.5%
15 | O=C(COc1ccc([N+](=O)[O-])cc1)N/N=C/c1cc([N+](=O)[O-])ccc1N1CCOCC1 | inactive: -27.9%
16 | CC(C)OCCCNc1ncnc2c1cnn2-c1ccccc1 | inconclusive: -47.5%
17 | COc1cc(NC(=O)CN2CCC(Cc3ccccc3)CC2)c(C)cc1[N+](=O)[O-] | inconclusive: -45.3%
18 | CCCn1c2ccccc2c2nnc(SCC(=O)Nc3c(C)n(C)n(-c4ccccc4)c3=O)nc21 | inconclusive: -36.2%
19 | Cc1ccc(S(=O)(=O)NC(C(=O)OCC(=O)NC(=O)c2cccn2C)C(C)C)cc1 (centres undefined) | inactive: 39.2%
20 | CC(=O)Nc1nc(C)c(-c2csc(Nc3cccc([N+](=O)[O-])c3)n2)s1 | inactive: 9.27%
21 | CC(C)CNC(=O)COC(=O)c1ccccc1OCC(=O)Nc1ccc(Br)cc1 | inconclusive: -30.3%
22 | CC(=O)Nc1ccc(S(=O)(=O)Nc2nc3n(n2)C(c2ccccc2)CC(=O)N3)cc1 (centres undefined) | inconclusive: -36.3%
23 | O=C(COC(=O)c1cc(S(=O)(=O)N2CCOCC2)cs1)c1ccccc1 | inconclusive: -44.3%

Gathered by group: the compounds so far with an aryl thioether with sulfur outside any ring (four)
Row | Compound | activity change (PNC), negative = inhibition
5 | Cn1c(=O)c2c(nc(SCCN3CCOCC3)n2Cc2ccccc2Cl)n(C)c1=O | inactive: -10.5%
7 | CSc1nc(-c2ccc(Cl)cc2)nn1C(=O)c1ccccc1 | inconclusive: -74.2%
13 | Cc1c(NC(=O)CSc2nnc(-c3ccco3)n2-c2ccccc2)c(=O)n(-c2ccccc2)n1C | inconclusive: -37%
18 | CCCn1c2ccccc2c2nnc(SCC(=O)Nc3c(C)n(C)n(-c4ccccc4)c3=O)nc21 | inconclusive: -36.2%

Next part.

Row | Compound | activity change (PNC), negative = inhibition
24 | CC(Sc1ncnc2ccccc12)C(=O)Nc1ccc2c(c1)OCCO2 (centres undefined) | inactive: -9.55%
25 | O=C(Nc1ccncc1)C1c2ccccc2Oc2ccccc21 | inconclusive: -66.1%
26 | Cc1ccc(OCC(O)CN2CCN(CC(O)COc3ccc(C)cc3)CC2)cc1 (centres undefined) | inconclusive: -34.3%
27 | O=C(C1COc2ccccc2O1)N1CCc2ccccc2C1 (centres undefined) | inconclusive: -49.2%
28 | COC(=O)c1ccccc1NC(=O)CSc1nc(O)cc(=O)n1C1CCCC1 | active: -88.8%
29 | CCCCCn1c(=O)[nH]c2cc(C(=O)NCc3ccc4c(c3)OCO4)ccc2c1=O | inactive: 33.4%
30 | CCOC(=O)Nc1ccc2c(c1)N(C(=O)N(C)C)c1ccccc1CC2 | inconclusive: -37%
31 | Cc1nc(Nc2cccc(C(F)(F)F)c2)nc2c1C(=O)CC(C)C2 (centres undefined) | inconclusive: -32.4%
32 | Cc1cccc(N2CCN(C(=O)c3cn(C)c(=O)c4c3c3ccccc3n4C)CC2)c1C | inconclusive: -39%
33 | O=C(NC1CCCCC1)c1cc2nc3c(c(C(F)(F)F)n2n1)CCCC3 | inactive: -29.2%
34 | CC(C)(C)c1ccc(/C=N/OCC(=O)NCc2ccc(F)cc2)cc1 | inactive: -16.1%
35 | CSc1ccccc1NC(=O)COc1ccc(Cl)cc1Cl | inconclusive: -33.2%
36 | COc1cccc(C(=O)Oc2cc3c4c(c2)C(C)=CC(C)(C)N4C(=O)C3=O)c1 | inactive: 46.7%
37 | CCc1ccc(NC(=S)N(CCCN2CCOCC2)Cc2ccccn2)cc1 | inconclusive: -32.5%
38 | C=C(C)CSc1ncc(-c2cccc(C(F)(F)F)c2)cn1 | inactive: -27.3%
39 | O=C(c1cc2ccccc2o1)c1nc2c(n1O)CCCCC2 | inconclusive: -55%
40 | CCOc1ccc(C(=O)C(CCC(CN(C)C)C(=O)c2ccc(OCC)cc2)CN(C)C)cc1 (centres undefined) | inconclusive: -57.4%
41 | N/C(COc1cccc(C(F)(F)F)c1)=N\NC(=O)c1cccnc1Oc1ccccc1 | inconclusive: -32.1%
42 | CN(C)C(=O)Cn1c(SCC(=O)NCc2ccc3c(c2)OCO3)nc2ccccc21 | inconclusive: -60.2%
43 | O=C(NNC(=S)Nc1ccccc1)c1ccncc1 | inactive: -12.5%
44 | c1nc(NCC2(N3CCOCC3)CCCCC2)c2ccsc2n1 | active: -100%
45 | O=[N+]([O-])c1nn(-c2ccc3c(c2)OCCO3)n(O)c1=NC1CCCCCC1 | inactive: 12.9%
46 | O=C1c2ccccc2C(Nc2ccc(Cl)cn2)N1c1cccnc1 (centres undefined) | inconclusive: -32.5%

Row | Compound | activity change (PNC), negative = inhibition
47 | O=C(CN1CCN(c2ccccn2)CC1)Nc1cccc(C(F)(F)F)c1 | inactive: 25.6%
48 | O=C(Nc1sc2c(c1-c1nc3ccccc3[nH]1)CCCC2)C1CCCC1 | inconclusive: -37.6%
49 | N#Cc1nc(-c2ccc(F)cc2)oc1NCc1cccc2c1OCO2 | inconclusive: -68.9%
50 | O=C(COC(=O)c1ccccc1Nc1ccc(SC(F)F)cc1)NCc1ccco1 | inactive: 25%
51 | COc1ccc(C2C(C#N)=C(N)N(c3ccccc3C#N)C3=C2C(=O)CCC3)cc1CN1CCCC1 (centres undefined) | inactive: -1.56%
52 | O=C(COC(=O)c1ccco1)Nc1nc2ccccc2s1 | inconclusive: -50.5%
53 | Cc1cccc(NC(=O)/C=C/c2ccc([N+](=O)[O-])s2)c1 | inconclusive: -69.8%
54 | Cc1ccc(NC(=O)c2ccc(OC(F)(F)F)cc2)cc1S(=O)(=O)N(C)C | inconclusive: -40.1%
55 | Cn1c2ccccc2c2c(C(=O)O)cn(C3CCCC3)c(=O)c21 | inconclusive: -58.7%
56 | CCOC(=O)N1CCN(C(=O)COc2ccc(S(=O)(=O)NCC(C)C)cc2C)CC1 | inconclusive: -52.7%
57 | COc1ccccc1OCCNC1CCCC1 | active: -97.7%
58 | Cc1ccc(C)c(CN2CCNC2=O)c1 | inconclusive: -52.7%
59 | O=c1c2ccccc2nc(-c2cccc(Cl)c2)n1O | inconclusive: -69.9%
60 | Cc1cc2ccccc2c(=O)n1CC(=O)NCC(=O)N(C)C1CCCCC1 | inactive: -1.57%
61 | CCN(CC)C(=O)c1cc2c(=O)oc3ccccc3c2s1 | inconclusive: -36%
62 | O=C(NCc1ccco1)c1cc(-c2ccccn2)nc2ccccc12 | inactive: 27.2%
63 | CC(C)c1ccc(C(=O)CSc2ncn[nH]2)cc1 | inactive: -15.1%
64 | Cc1ccc2nc(SCc3cccc([N+](=O)[O-])c3)nc(C)c2c1 | inconclusive: -52.7%
65 | CCOc1ccc(C2=C(C=Nc3c(C)n(C)n(-c4ccccc4)c3=O)C(c3ccc(F)cc3)c3ccccc3O2)cc1 (centres undefined) | inconclusive: -30.7%
66 | O=C(O)Cn1cnc2scc(-c3cccs3)c2c1=O | inactive: 9.46%
67 | CC(=O)Nc1ccc(S(=O)(=O)Nc2ccc(NC(=O)c3ccco3)cc2)cc1 | inconclusive: -41.8%
68 | O=c1[nH]c(=O)n(C2CCCO2)cc1Br (centres undefined) | inconclusive: -31.1%
69 | CS(=O)(=O)c1sc2nc(-c3ccccc3)cc(-c3ccccc3)c2c1N | inactive: 18.6%

Row | Compound | activity change (PNC), negative = inhibition
70 | COc1cc(NC(=S)N2CCC(C(N)=O)CC2)cc(OC)c1 | inconclusive: -67.8%
71 | Cc1ccc(-n2ncc(C#N)c2/N=C/N2CCN(C)CC2)cc1 | inconclusive: -36.3%
72 | CNC(=O)c1cc(C)c(-c2ccccc2)s1 | inconclusive: -69.7%
73 | O=C(O)C1C2CCC(C2)C1C(=O)NCc1ccccn1 (centres undefined) | inconclusive: -47.5%
74 | CCc1nnc(NC(=O)CSc2nccn2-c2ccccc2)s1 | inconclusive: -31.3%
75 | Nc1c(C(=O)Nc2ccc(Br)cc2)sc2nc(-c3ccco3)ccc12 | inactive: -15.9%
76 | O=C(COc1ccc(-c2ccccc2)cc1)N1CCN(S(=O)(=O)Cc2ccccc2)CC1 | inactive: -21.2%
77 | CC(C1CC1)N(C(=O)NC1CCS(=O)(=O)C1)c1ccccc1 (centres undefined) | inactive: 18.8%
78 | Cc1c(C(=O)NCc2cccnc2)oc2ccc(S(=O)(=O)N3CC(C)CC(C)C3)cc12 (centres undefined) | inconclusive: -41.2%
79 | COC(=O)/C(=C1/Oc2cc(C)oc(=O)c2S1)C(F)(F)F | active: -100%
80 | C=CCNCCOc1c(C)cc(C)cc1Cl | inconclusive: -34.4%
81 | COc1ccc2nc(C(C)O)[nH]c2c1 (centres undefined) | inconclusive: -31.5%
82 | COc1cc(NS(=O)(=O)c2ccc(NC(=S)NC(=O)c3sc4cc(F)ccc4c3Cl)cc2)nc(OC)n1 | inactive: 7.61%
83 | Fc1ccccc1CSc1nnc(-c2cnccn2)n1Cc1ccco1 | active: -100%
84 | CCOC(=O)C1=C(C)NC(=O)NC1c1ccc(OC)c(Cl)c1 (centres undefined) | inconclusive: -30.8%
85 | Cc1cc(NC(=O)CSc2nc3ccccc3c(=O)n2-c2ccccc2)no1 | inconclusive: -31.5%
86 | Cc1nc(NC2=NCN(Cc3cccnc3)CN2)nc2c(C)cccc12 | inconclusive: -62.5%
87 | COc1ccc(C)cc1NC(=O)C(CCS(C)(=O)=O)NC(C)=O (centres undefined) | inactive: -12.3%
88 | CCOC(=O)CN(C(=O)CNC(=O)c1ccco1)C(C(=O)NC1CCCCC1)c1cccc(OC)c1 (centres undefined) | inconclusive: -36.9%
89 | COc1cc(C)c(CNc2cccc(C)c2)cc1C | inconclusive: -59.1%
